Measurements taken from publication PMC12466122.
No constants are given. Whether binding was seen depends on the method and setting. In cells and extracts the contact can be indirect. Some binding calls cover weakened binding; strength is not graded here.

Target: p53 (human (endogenous in SW1990)) (UniProt P04637)
Assay: co-IP; immunoprecipitation of p53 or of KRAS from SW1990 cells with or without LINC00431 overexpression, hypoxia for 12 h, MG132 (1 μg/mL) in the last 2 h; TRAF7 immunoblotted

B1: tumor necrosis factor receptor-associated factor 7 (TRAF7) (protein, UniProt Q6Q0C0 1-670)
chain: MSSGKSARYNRFSGGPSNLPTPDVTTGTRMETTFGPAFSAVTTITKADGTSTYKQHCRTPSSSSTLAYSPRDEEDSMPPISTPRRSDSAISVRSLHSESSMSLRSTFSLPEEEEEPEPLVFAEQPSVKLCCQLCCSVFKDPVITTCGHTFCRRCALKSEKCPVDNVKLTVVVNNIAVAEQIGELFIHCRHGCRVAGSGKPPIFEVDPRGCPFTIKLSARKDHEGSCDYRPVRCPNNPSCPPLLRMNLEAHLKECEHIKCPHSKYGCTFIGNQDTYETHLETCRFEGLKEFLQQTDDRFHEMHVALAQKDQEIAFLRSMLGKLSEKIDQLEKSLELKFDVLDENQSKLSEDLMEFRRDASMLNDELSHINARLNMGILGSYDPQQIFKCKGTFVGHQGPVWCLCVYSMGDLLFSGSSDKTIKVWDTCTTYKCQKTLEGHDGIVLALCIQGCKLYSGSADCTIIVWDIQNLQKVNTIRAHDNPVCTLVSSHNVLFSGSLKAIKVWDIVGTELKLKKELTGLNHWVRALVAAQSYLYSGSYQTIKIWDIRTLDCIHVLQTSGGSVYSIAVTNHHIVCGTYENLIHVWDIESKEQVRTLTGHVGTVYALAVISTPDQTKVFSASYDRSLRVWSMDNMICTQTLLRHQGSVTALAVSRGRLFSGAVDSTVKVWTC
With B1 the binding was “binds”.
